Measured values from publication PMC7341970.

Sequences of proteins named here, by UniProt entry; tags and fusion partners are left off.
UniProt P23198: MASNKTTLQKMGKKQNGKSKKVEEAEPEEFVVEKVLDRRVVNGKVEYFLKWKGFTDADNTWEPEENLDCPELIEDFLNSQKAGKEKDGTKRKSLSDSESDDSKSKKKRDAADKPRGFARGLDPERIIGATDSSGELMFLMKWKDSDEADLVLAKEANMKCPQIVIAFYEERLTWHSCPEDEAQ

Target: T1, Activity Dependent Neuroprotective Protein (ADNP), endogenous (mouse (endogenous in mESCs)) (UniProt Q9Z103)
T1 sequence: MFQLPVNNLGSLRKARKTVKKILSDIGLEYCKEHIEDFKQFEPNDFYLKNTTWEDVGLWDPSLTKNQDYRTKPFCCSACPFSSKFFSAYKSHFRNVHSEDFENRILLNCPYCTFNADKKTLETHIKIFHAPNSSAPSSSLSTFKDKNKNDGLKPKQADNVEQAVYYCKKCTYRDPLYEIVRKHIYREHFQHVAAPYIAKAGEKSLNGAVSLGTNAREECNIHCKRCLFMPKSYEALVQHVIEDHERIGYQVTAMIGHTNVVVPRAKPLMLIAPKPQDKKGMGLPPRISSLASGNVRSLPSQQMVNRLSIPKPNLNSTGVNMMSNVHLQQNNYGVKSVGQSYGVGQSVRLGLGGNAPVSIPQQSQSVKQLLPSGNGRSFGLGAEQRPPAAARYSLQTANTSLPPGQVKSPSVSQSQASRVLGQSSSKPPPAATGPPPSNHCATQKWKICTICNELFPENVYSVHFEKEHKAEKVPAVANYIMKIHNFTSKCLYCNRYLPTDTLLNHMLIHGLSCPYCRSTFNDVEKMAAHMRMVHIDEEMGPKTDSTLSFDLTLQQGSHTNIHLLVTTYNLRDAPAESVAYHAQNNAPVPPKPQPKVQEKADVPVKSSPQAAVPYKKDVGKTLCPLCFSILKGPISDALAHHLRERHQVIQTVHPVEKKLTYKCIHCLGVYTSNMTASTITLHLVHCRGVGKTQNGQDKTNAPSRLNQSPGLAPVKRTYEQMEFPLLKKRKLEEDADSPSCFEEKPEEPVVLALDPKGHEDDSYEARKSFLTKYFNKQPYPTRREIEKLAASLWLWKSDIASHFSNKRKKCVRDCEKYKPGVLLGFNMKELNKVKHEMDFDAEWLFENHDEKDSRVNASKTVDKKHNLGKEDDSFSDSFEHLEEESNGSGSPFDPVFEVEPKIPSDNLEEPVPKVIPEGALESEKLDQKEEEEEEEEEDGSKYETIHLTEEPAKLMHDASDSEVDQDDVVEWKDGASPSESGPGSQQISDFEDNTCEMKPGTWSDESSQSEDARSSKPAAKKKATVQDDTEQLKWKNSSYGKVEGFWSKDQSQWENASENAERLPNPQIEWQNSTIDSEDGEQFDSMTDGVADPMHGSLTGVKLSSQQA
Assay: affinity purification with mass spectrometry; IP with commercial ADNP antibody (IgG as control) from mESCs, whole gel lanes analysed by mass spectrometry

HP1γ, endogenous (from UniProt P23198 1-183)
binding: binds

No constants are given. Whether binding was seen depends on the method and setting. Binding seen in cells or lysates may run through a third protein. A yes stands for co-enrichment or nearness to the bait. Other partners may have been found.
